Measurements: article PMC11109957
Positions count from the first letter of the chain named. Results are given in words; binding and its absence hold for the method and conditions named. Binding seen in cells or lysates may run through a third protein. Some entries that bind do so weakly or less than the wild type. For some of these results: Tags and fused reporters may be left off the sequences shown.

Chains of the proteins cited; added tags and fusions are not shown.
UniProt O15527: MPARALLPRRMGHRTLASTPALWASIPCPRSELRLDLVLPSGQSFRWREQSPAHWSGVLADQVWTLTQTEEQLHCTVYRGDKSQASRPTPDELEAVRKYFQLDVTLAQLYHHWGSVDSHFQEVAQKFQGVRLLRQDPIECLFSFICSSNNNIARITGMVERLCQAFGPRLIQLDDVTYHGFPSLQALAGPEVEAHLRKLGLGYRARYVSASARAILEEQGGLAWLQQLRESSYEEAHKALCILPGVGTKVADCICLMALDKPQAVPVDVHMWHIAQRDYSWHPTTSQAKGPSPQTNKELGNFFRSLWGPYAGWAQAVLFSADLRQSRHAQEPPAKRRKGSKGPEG
UniProt Q13535: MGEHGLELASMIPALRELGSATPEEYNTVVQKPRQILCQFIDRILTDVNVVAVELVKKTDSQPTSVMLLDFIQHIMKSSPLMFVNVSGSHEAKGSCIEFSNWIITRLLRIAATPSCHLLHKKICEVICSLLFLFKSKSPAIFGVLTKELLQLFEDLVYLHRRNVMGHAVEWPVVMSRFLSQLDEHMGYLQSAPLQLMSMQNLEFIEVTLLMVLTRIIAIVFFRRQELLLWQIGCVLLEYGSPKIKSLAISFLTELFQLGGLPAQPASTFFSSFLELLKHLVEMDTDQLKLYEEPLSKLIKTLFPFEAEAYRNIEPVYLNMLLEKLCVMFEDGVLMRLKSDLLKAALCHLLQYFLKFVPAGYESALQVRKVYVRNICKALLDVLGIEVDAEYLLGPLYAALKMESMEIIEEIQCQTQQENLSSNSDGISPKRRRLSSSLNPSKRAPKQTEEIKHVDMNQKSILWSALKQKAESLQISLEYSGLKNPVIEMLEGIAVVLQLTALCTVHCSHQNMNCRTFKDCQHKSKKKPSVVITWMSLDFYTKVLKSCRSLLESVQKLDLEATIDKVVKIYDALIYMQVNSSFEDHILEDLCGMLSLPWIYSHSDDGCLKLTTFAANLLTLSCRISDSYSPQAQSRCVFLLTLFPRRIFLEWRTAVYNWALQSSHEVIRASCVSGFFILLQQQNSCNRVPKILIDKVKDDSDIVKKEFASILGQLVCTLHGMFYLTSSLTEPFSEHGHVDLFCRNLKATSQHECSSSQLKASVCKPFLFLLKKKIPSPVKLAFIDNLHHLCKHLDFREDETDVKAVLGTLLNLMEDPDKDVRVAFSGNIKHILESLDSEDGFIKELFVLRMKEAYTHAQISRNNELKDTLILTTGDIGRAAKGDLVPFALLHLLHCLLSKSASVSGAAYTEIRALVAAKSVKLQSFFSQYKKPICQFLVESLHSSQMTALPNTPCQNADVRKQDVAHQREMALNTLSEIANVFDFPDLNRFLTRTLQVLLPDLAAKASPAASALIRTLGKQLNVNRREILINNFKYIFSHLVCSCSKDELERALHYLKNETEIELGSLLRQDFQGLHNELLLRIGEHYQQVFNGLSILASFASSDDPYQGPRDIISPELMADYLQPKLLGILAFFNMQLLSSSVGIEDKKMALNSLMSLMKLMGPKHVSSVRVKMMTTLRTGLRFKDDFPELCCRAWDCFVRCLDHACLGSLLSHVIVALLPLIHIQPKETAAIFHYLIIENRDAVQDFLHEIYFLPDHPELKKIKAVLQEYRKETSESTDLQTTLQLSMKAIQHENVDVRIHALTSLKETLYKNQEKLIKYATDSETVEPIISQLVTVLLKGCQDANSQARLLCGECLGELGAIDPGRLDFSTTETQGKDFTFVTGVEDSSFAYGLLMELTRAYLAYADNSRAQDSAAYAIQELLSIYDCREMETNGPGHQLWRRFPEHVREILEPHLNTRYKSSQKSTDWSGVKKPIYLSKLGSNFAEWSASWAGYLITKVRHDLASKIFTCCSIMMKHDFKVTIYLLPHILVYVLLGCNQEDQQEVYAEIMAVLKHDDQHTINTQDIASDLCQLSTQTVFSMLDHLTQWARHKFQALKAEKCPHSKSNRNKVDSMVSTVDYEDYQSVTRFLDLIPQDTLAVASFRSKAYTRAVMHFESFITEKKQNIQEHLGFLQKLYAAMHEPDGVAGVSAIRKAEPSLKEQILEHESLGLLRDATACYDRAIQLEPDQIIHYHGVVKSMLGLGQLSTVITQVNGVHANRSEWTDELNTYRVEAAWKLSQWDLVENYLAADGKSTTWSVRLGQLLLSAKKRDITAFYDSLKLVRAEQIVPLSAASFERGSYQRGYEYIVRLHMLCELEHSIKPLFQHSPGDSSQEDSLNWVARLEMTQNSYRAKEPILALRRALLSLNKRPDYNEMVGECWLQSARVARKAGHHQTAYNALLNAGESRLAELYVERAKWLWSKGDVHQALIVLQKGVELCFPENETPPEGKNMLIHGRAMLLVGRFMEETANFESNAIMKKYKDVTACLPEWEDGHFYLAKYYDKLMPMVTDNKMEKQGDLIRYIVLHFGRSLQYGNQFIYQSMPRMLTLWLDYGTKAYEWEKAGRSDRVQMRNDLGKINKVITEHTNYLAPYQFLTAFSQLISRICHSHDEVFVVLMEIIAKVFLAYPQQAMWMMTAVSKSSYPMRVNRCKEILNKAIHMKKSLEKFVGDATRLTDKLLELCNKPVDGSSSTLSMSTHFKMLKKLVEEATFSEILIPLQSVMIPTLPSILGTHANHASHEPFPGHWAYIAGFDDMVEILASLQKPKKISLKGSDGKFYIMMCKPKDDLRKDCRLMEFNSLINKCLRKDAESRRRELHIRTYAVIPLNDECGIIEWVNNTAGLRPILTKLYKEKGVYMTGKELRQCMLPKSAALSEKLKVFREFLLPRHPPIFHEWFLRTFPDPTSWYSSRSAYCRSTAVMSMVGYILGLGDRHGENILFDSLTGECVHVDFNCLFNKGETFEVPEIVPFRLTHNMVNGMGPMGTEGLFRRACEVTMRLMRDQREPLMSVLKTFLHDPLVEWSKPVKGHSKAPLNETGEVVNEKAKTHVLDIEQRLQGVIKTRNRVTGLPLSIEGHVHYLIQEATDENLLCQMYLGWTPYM

Legend:
[1] = molecular target: T1, SIRT2 (construct of Figure 5C, D, F, K not told) (UniProt Q8IXJ6); experiment: co-IP; co-IP of SIRT2 with ATM or ATR; constructs and antibodies not told
T1 sequence: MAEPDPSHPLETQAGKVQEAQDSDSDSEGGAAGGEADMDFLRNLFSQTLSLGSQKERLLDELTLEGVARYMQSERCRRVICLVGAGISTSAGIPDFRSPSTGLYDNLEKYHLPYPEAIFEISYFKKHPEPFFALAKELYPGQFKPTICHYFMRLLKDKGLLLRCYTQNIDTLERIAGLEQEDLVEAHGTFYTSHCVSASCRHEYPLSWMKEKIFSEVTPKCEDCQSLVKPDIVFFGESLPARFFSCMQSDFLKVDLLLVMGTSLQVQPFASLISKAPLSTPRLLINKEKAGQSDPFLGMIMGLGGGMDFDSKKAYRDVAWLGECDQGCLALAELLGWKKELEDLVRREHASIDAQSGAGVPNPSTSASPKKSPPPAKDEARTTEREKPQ

SIRT2 S46AS53A = molecular target: T2, SIRT2 S46AS53A (UniProt Q8IXJ6); experiment: co-IP; co-IP of OGG1 with SIRT2 WT or S46AS53A; cells treated with KBrO3, with or without ATM or ATR inhibitors; constructs not told
T2 sequence: T1 sequence with S46A, S53A

[2] = molecular target: T1, SIRT2 (construct of Figure 5C, D, F, K not told); experiment: as above
SIRT2-Flag [3] = molecular target: T3, SIRT2-Flag (UniProt Q8IXJ6); experiment: co-IP; HEK293 cells transfected with a vector encoding Flag-tagged SIRT2; beads coated with an antibody against Flag; blots for BER factors
T3 sequence: T1 sequence

SIRT2-Flag-GFP = molecular target: T4, SIRT2-Flag-GFP (UniProt Q8IXJ6); experiment: co-IP; HEK293 cells transfected with SIRT2-Flag-GFP and OGG1-His, treated with 40 mM KBrO3 for 30 min (or with H2O2); co-IP with Flag beads, Western blot
T4 sequence: T1 sequence

SIRT2-Flag [4] = molecular target: T3, SIRT2-Flag; experiment: co-IP; HEK293 cells transfected with SIRT2-Flag and OGG1-His; co-IP with an anti-Flag antibody, Western blot
OGG1-His = OGG1-His (UniProt O15527); experiment: co-IP; HEK293 cells transfected with SIRT2-Flag and OGG1-His; co-IP with an anti-His antibody, Western blot

## ATR (ATM- and Rad3-Related) kinase (from UniProt Q13535 1-2644) (enzyme)
[1]
  binding: binds

## OGG1 (construct of Figure 5F, K not told) (from UniProt O15527 1-345)
SIRT2 S46AS53A
  binding: binds
[2]
  binding: binds

## OGG1 (from UniProt O15527 1-345)
SIRT2-Flag [3]
  binding: binds

## OGG1-His (from UniProt O15527 1-345)
SIRT2-Flag-GFP
  binding: binds
SIRT2-Flag [4]
  binding: binds

B1: SIRT2-Flag (protein, UniProt Q8IXJ6 1-389)
chain: T1 sequence
OGG1-His
  binding: binds
